Test results published in PubChem BioAssay AID540276 (National Center for Advancing Translational Sciences (NCATS), 2011).
Values joined by “and” are separate entries in the source; they are usually repeats but may differ in a detail not shown here. Identical values can stand only once. The whole screen tested about 300,000 compounds, of which about 5,400 (1.8%) were called active. Inconclusive results, whose numbers are uncertain, are shown with a selection of clear calls. Calls come from the whole dose curve; tested in HEK293 cells. Where the call is inconclusive, the potency comes from a doubtful curve fit.

Assay: qHTS for inhibitors of binding or entry into cells for Marburg Virus
Details: Marburg virus pseudotyped entry inhibition, cell reporter; activity change, negative = inhibition: at 37.8 µM (top of the series) unless noted
% is set by controls: 0 for no effect and ±100 for the full control effect; potency is the fitted concentration of half-maximal effect.

With CCN=C(N/N=C/c1ccc([N+](=O)[O-])cc1)SC as the compound, how does the “activity change, negative = inhibition” value read?
Its value is inactive: 22.1%.

Which Potency does the source give for COc1ccc(CC2C(=O)N(c3ccccc3)C(=O)N(c3ccccc3)C2=O)c(OC)c1 here?
The Potency was inconclusive: 2.59 µM [activator, full curve].

For Cc1ccc(C(=O)COC(=O)CNC(=O)CN2C(=O)c3ccccc3C2=O)cc1, which Potency is on record?
The Potency was inconclusive: 0.1 µM [activator, full curve, poor fit].

With CCCN(CC(=O)Nc1ccccc1OC)C(=O)c1cc(S(=O)(=O)NCc2ccccc2)ccc1C as the compound, how does the Potency read?
The Potency was inconclusive: 7.94 µM [inhibitor, partial curve, poor fit].

For Cc1ccc(S(=O)(=O)N2CCN(C(=O)c3cc4c(C)nn(-c5ccccc5)c4s3)CC2)cc1, which Potency is on record?
The Potency was inconclusive: 29.1 µM [inhibitor, single point].

With O=C(CCl)c1ccc(Cc2ncc(C(F)(F)F)cc2Cl)s1 as the compound, how does the “activity change, negative = inhibition” value read?
Its value is inactive: 0.631% [at 46.1 µM].

With CCOc1ccc(C2C(C(N)=O)=C(C)Nc3nc(SCc4ccccc4)nn32)cc1 (stereo not given) as the compound, how does the “activity change, negative = inhibition” value read?
Its value is inactive: -2.92% [at 46.1 µM].

For COc1ccc(-c2csc(Cc3nc(O)cs3)n2)cc1, which Potency is on record?
The Potency was inconclusive: 1.78 µM [activator, partial curve, poor fit].

For CC(C)[C@@H](OCc1ccccc1)[C@H](C)/C=N/OC[C@@H](O)COCc1ccco1, which Potency is on record?
The Potency was inconclusive: 0.0299 µM [activator, full curve, poor fit].

For CCn1c(-c2cc(Br)cc(OC)c2O)nc2cc(S(=O)(=O)N(C)C)ccc21, which Potency is on record?
The Potency was inconclusive: 32.6 µM [inhibitor, single point].

For Cc1ccc(C)c(S(=O)(=O)N2CCCC2CNC(=O)C(=O)NCCc2ccccc2)c1 (stereo not given), which Potency is on record?
The Potency was inconclusive: 7.94 µM [inhibitor, partial curve, poor fit].

Which Potency does the source give for S=C(Nc1ccc(Cl)cc1)NC1CC2CCCC(C1)N2C1CC1 (stereo not given) here?
The Potency was inconclusive: 11.6 µM [inhibitor, partial curve, poor fit].

Which “activity change, negative = inhibition” value does the source give for Cc1ccc(S(=O)(=O)N2CCCCC2)cc1NC(=O)CCOc1ccccc1 here?
The value was inactive: 0.231%.

With Cc1cc(Cl)c(S(N)(=O)=O)cc1OCC(=O)NC1CCCCC1 as the compound, how does the Potency read?
Its Potency is inconclusive: 1.26 µM [inhibitor, single point].

Which Potency does the source give for Cc1c(Cl)ccc2c(C(O)CBr)cc(-c3ccccc3)nc12 (stereo not given) here?
Its Potency is inconclusive: 11.2 µM [inhibitor, partial curve, poor fit].

With CCOC(=O)c1[nH]c(C(=O)O)c(CCC(=O)OC)c1C as the compound, how does the “activity change, negative = inhibition” value read?
Its value is inactive: 0.316%.

With CCN1CCN(CCCNC(=O)c2cc3c(s2)-c2ccccc2OC3)CC1 as the compound, how does the Potency read?
The Potency was inconclusive: 35.5 µM [inhibitor, single point].

With C=CCn1c(SCc2c(C)noc2C)nc2sc3c(c2c1=O)CCCCC3 as the compound, how does the Potency read?
Its Potency is inconclusive: 20.6 µM [inhibitor, single point].

Which Potency does the source give for O=C(c1ccccc1)C(CCC(CN1CCOCC1)C(=O)c1ccccc1)CN1CCOCC1 (stereo not given) here?
The Potency was inconclusive: 6.31 µM [inhibitor, partial curve, poor fit].

With CCOC(=O)c1c(C)[nH]c(C(=O)N/N=C/c2cccc(OC)c2)c1C as the compound, how does the Potency read?
The Potency was inconclusive: 10 µM [inhibitor, partial curve, poor fit].

With CCCCOc1ccc(C(=O)N/C(=C/C=C/c2ccccc2)C(=O)NC)cc1 as the compound, how does the “activity change, negative = inhibition” value read?
The value was inactive: 44.3%.

With CCOP(=O)(OCC)c1nc(-c2ccc(Cl)cc2)oc1NCc1ccccc1 as the compound, how does the Potency read?
The Potency was inconclusive: 29.1 µM [inhibitor, single point].

Which Potency does the source give for N#CCc1c(C#N)c(N)nc(N2CCCC(CO)C2)c1C#N (stereo not given) here?
Its Potency is inconclusive: 1.26 µM [inhibitor, single point].

Which Potency does the source give for Nc1ccc(S(=O)(=O)Nc2nccc(/C=C/c3cccc(Br)c3)n2)cc1 here?
Its Potency is inconclusive: 11.2 µM [inhibitor, partial curve, poor fit].

With COc1ccc2c(Sc3ccccc3)c(C(=O)NCCc3ccc(Cl)cc3)[nH]c2c1 as the compound, how does the Potency read?
Its Potency is inconclusive: 1.12 µM [activator, partial curve, poor fit].

Which Potency does the source give for O=C(NNC(=S)NC1CCCCC1)c1ccccc1O here?
The Potency was inconclusive: 10 µM [inhibitor, partial curve, poor fit].

Which Potency does the source give for CCc1cc2c(NCCN3CCCCC3)ncnc2s1 here?
Its Potency is inconclusive: 16.4 µM [inhibitor, single point].

With O=C1CC(=C(c2ccccc2)c2ccccc2)C(=O)N1CCCCN1CCN(c2cccc(Cl)c2)CC1 as the compound, how does the Potency read?
The Potency was inconclusive: 10 µM [inhibitor, partial curve, poor fit].

Which Potency does the source give for Cc1cc(Cl)c(OCCCN(C)C)c(Br)c1 here?
Its Potency is inconclusive: 14.6 µM [inhibitor, partial curve].

For COc1ccc(-c2noc(CNC(=O)c3ccc4c(c3)OCO4)n2)cc1OC, which “activity change, negative = inhibition” value is on record?
The value was inactive: 3.47%.

Which Potency does the source give for COc1ccc(N2CCN(c3ncnc4c3[nH]c3ccccc34)CC2)cc1 here?
Its Potency is inconclusive: 8.91 µM [inhibitor, partial curve, poor fit].

Which Potency does the source give for O=C1CC(C(=O)Nc2ccc(F)cc2)S/C(=N\N=C\c2ccco2)N1 (stereo not given) here?
Its Potency is inconclusive: 4.47 µM [activator, full curve, poor fit].

Which “activity change, negative = inhibition” value does the source give for Cc1cccc(C(C)Nc2ccc([N+](=O)[O-])cn2)c1 (stereo not given) here?
The value was inactive: -2.22%.

Which Potency does the source give for O=C(C1CCN(S(=O)(=O)c2cccs2)CC1)N1CCN(c2ccccc2)CC1 here?
Its Potency is inconclusive: 11.6 µM [activator, partial curve, poor fit].

With CCOC(=O)N1CCN(C(=O)c2cc(-c3ccc(OCC)cc3)nc3ccccc23)CC1 as the compound, how does the Potency read?
The Potency was “inactive and inconclusive: 7.3 µM [inhibitor, partial curve, poor fit]”.

For O=C(CSc1nccc(=O)[nH]1)NC1CCCc2ccccc21 (stereo not given), which “activity change, negative = inhibition” value is on record?
Its value is inactive: -5.85% [at 46.1 µM].

Which Potency does the source give for O=C(Cc1cccs1)N/N=C/C(Cl)=C/c1ccccc1 here?
The Potency was inconclusive: 3.55 µM [activator, single point].

With CN1C(=O)N(CC(=O)N2CCN(S(=O)(=O)c3ccc(Cl)s3)CC2)C(=O)C12CCCCC2 as the compound, how does the Potency read?
Its Potency is inconclusive: 5.62 µM [activator, single point].

For COc1ccc(C2CC(c3cccs3)=NN2C(=O)CN2CCCCC2)cc1 (stereo not given), which “activity change, negative = inhibition” value is on record?
The value was inactive: -4.8% [at 46.1 µM].

Which Potency does the source give for CSc1ccc(OC2CCN(Cc3ccccc3)CC2)cc1 here?
Its Potency is inconclusive: 18.4 µM [inhibitor, single point].

With CC(C)(C)NC(=O)Cn1c(SCC(=O)Nc2nccs2)nc2ccccc21 as the compound, how does the Potency read?
Its Potency is inconclusive: 29.1 µM [inhibitor, single point].

Which Potency does the source give for COCCN(C(=S)Nc1c(C)cc(C)cc1C)C(C)c1cccnc1 (stereo not given) here?
Its Potency is inconclusive: 5.62 µM [activator, single point].

With Nc1ccc2oc(-c3cccc4ccccc34)nc2c1 as the compound, how does the Potency read?
The Potency was inconclusive: 2.24 µM [inhibitor, partial curve].

For COc1cc(/C=N/NC(=O)c2ccc(Cl)cc2)ccc1OCC(=O)N1CC(C)OC(C)C1 (stereo not given), which Potency is on record?
The Potency was inconclusive: 3.16 µM [activator, single point].

With Fc1ccc(-c2[nH]ncc2CN2CCN(c3ccc(F)cc3)CC2)cc1 as the compound, how does the Potency read?
The Potency was inconclusive: 3.98 µM [inhibitor, partial curve, poor fit].

For O=C(Nc1ccccc1O)c1cc(S(=O)(=O)N2CCOCC2)c(Cl)cc1Cl, which Potency is on record?
The Potency was inconclusive: 2.59 µM [inhibitor, full curve].

With O=C1Cc2ccccc2Sc2ccccc21 as the compound, how does the “activity change, negative = inhibition” value read?
The value was inactive: 0.593%.

For c1ccc(SCCN2CCc3ccccc3C2)cc1, which “activity change, negative = inhibition” value is on record?
The value was inactive: 10.8%.

With COC(=O)CCCC1=CC2=C(c3ccccc3)C(=O)C(C)(OC(=O)C3CCCC3)C(=O)C2=CN1CCCCO (stereo not given) as the compound, how does the Potency read?
Its Potency is inconclusive: 0.668 µM [inhibitor, single point].

Which Potency does the source give for COC(=O)c1cn(Cc2c(C)cc(C)cc2C)nn1 here?
Its Potency is inconclusive: 3.98 µM [inhibitor, full curve].

With CCOC(=O)CC(NC(=O)C(Cc1ccc(N(CCCl)CCCl)cc1)NC(C)=O)C(=O)OCC (stereo not given) as the compound, how does the Potency read?
The Potency was inconclusive: 4.47 µM [inhibitor, full curve, poor fit].

Which Potency does the source give for CN1CCN(C(=O)/C(=C/c2ccccc2)c2ccccc2)CC1 here?
The Potency was inconclusive: 9.2 µM [inhibitor, partial curve, poor fit].

With Cc1csc(Nc2ccc(Cl)cc2)[n+]1-c1ccc(Cl)cc1 as the compound, how does the Potency read?
The Potency was inconclusive: 10 µM [inhibitor, partial curve, poor fit].

With O=C(Nc1cccc(F)c1)N(Cc1ccc(Cl)cc1)CC(O)C(F)(F)F (stereo not given) as the compound, how does the Potency read?
The Potency was inconclusive: 25.1 µM [inhibitor, single point].

With O=C(Nc1cc(Cl)ccc1N1CCOCC1)C1=COCCO1 as the compound, how does the Potency read?
Its Potency is inconclusive: 0.891 µM [inhibitor, single point].

Which Potency does the source give for COc1ccc(CCNC(=O)C(C)OC(=O)c2cccs2)cc1OC (stereo not given) here?
Its Potency is inconclusive: 35.5 µM [activator, single point].

For CN1C(=CC=C2C=C(I)C(=O)C(I)=C2)C(C)(C)c2ccccc21, which “activity change, negative = inhibition” value is on record?
The value was inactive: -2.87% [at 46.1 µM].

Which “activity change, negative = inhibition” value does the source give for Cc1ccc(S(=O)(=O)SC/C=C/CSS(=O)(=O)c2ccc(C)cc2)cc1 here?
Its value is inactive: 27.6%.

For CCn1c(=O)c2cc(C(=O)Nc3cc(OC)c(OC)c(OC)c3)sc2c2ccccc21, which “activity change, negative = inhibition” value is on record?
Its value is inactive: -4.63% [at 46.1 µM].

Which “activity change, negative = inhibition” value does the source give for O=C(N/N=C/c1ccccn1)c1cc(Br)ccc1O here?
Its value is inactive: -11.9% [at 46.1 µM].

For COc1ccc(OC)c(C2Nc3c(Cl)ccc(C(=O)O)c3C3C=CCC32)c1 (stereo not given), which activity change, negative = inhibition is on record?
The activity change, negative = inhibition was inconclusive: 1.43% [activator] [at 46.1 µM].

For O=S1(=O)CCN(c2ccccc2CC(c2c[nH]c3ccccc23)c2c[nH]c3ccccc23)CC1, which Potency is on record?
The Potency was inconclusive: 35.5 µM [inhibitor, single point].

Which Potency does the source give for S=c1nc(-c2ccccc2)n(CCN2CCOCC2)c2c1CCCC2 here?
Its Potency is inconclusive: 29.1 µM [activator, single point].

With CC(=N\Nc1ccc(Cl)cc1)/C(=N/O)C(=O)Nc1ccccc1 as the compound, how does the “activity change, negative = inhibition” value read?
The value was inactive: 15.1%.

With COc1ccc(C(CC(=O)c2ccc(C)cc2)C(C#N)C#N)cc1OC (stereo not given) as the compound, how does the Potency read?
The Potency was inconclusive: 2.91 µM [inhibitor, single point].
